The reference is the same well before dosing, and untreated signal decays as well.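 Fibroblast labels denote human fibroblasts, mainly primary ones from uterus (C12385, HUF), lung (H6013), bone (Hs27A), adrenal (HADF) and skin (WS1), plus mammary HMF and breast cancer-associated Hs343T. Cancer cells are basal-like or mesenchymal-like triple-negative breast cancer lines. A hit is a response shift exceeding 3x replicate standard deviation. The tissue of the other fibroblasts is not given here.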
Test system: BT20
Experiment: relative JC-1 red fluorescence (viability) vs pre-drug, coculture with fibroblast (fraction); higher = more viable cancer cells
Protocol: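 JC-1 labelled TNBC cells cocultured 1:1 (1,500 cells each) with CellTrace Violet stained primary or stromal fibroblasts in 384-well plates in FluoroBrite medium, treated with one of 42 anticancer drugs at 0.1, 1, 10 or 100 uM. JC-1 red fluorescence (mitochondrial integrity in cancer cells only) was read by plate reader every 8 h for 72 h. Values are normalised to each well's pre-drug value. The stock of one drug was tenfold lower, so its dose labels may be too high.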

O=C(O)CCCc1ccc(N(CCCl)CCCl)cc1 [Chlorambucil]
relative JC-1 red fluorescence
Settings	8 h	16 h	24 h	32 h	40 h	48 h	56 h	64 h	72 h
0.1 µM, coculture fibroblast: C12385	0.899	0.874	0.879	0.843	0.793	0.784	0.776	0.778	0.772
0.1 µM, coculture fibroblast: H6013	0.917	0.892	0.9065	0.885	0.881	0.902	0.885	0.885	0.792
0.1 µM, coculture fibroblast: H6019	0.844	0.787	0.798	0.745	0.701	0.69	0.663	0.656	0.635
0.1 µM, coculture fibroblast: H6076	0.862	0.937	0.865	0.842	0.819	0.805	0.798	0.796	0.794
0.1 µM, coculture fibroblast: H6231	0.869	0.908	0.8374	0.7891	0.764	0.724	0.698	0.682	0.666
0.1 µM, coculture fibroblast: HADF	0.9318	0.887	0.88	0.839	0.833	0.819	0.848	0.872	0.863
0.1 µM, coculture fibroblast: HCFa	0.941	0.888	0.824	0.762	0.72	0.674	0.657	0.642	0.613
0.1 µM, coculture fibroblast: HCPF	0.921	0.932	0.8579	0.811	0.774	0.727	0.7	0.7075	0.6832
0.1 µM, coculture fibroblast: HHSteC	0.93	0.871	0.822	0.755	0.686	0.636	0.608	0.59	0.565
0.1 µM, coculture fibroblast: HMF	0.931	0.88	0.781	0.728	0.68	0.635	0.61	0.5934	0.57705
0.1 µM, coculture fibroblast: HPFa	0.903	0.867	0.866	0.795	0.77	0.728	0.711	0.695	0.6465
0.1 µM, coculture fibroblast: HUF	0.894	0.842	0.841	0.765	0.717	0.68	0.66	0.637	0.621
0.1 µM, coculture fibroblast: Hs5	0.947	0.931	0.873	0.835	0.811	0.7768	0.7585	0.735	0.7197
0.1 µM, coculture fibroblast: Hs27A	0.8759	0.925	0.846	0.883	0.813	0.888	0.822	0.786	0.863
0.1 µM, coculture fibroblast: Hs343T	0.893	0.896	0.783	0.715	0.654	0.602	0.545	0.527	0.501
0.1 µM, coculture fibroblast: WS1	0.843	0.801	0.829	0.78	0.753	0.747	0.745	0.738	0.741
1 µM, coculture fibroblast: C12385	0.899	0.808	0.766	0.701	0.641	0.624	0.599	0.581	0.567
1 µM, coculture fibroblast: H6013	0.973	0.891	0.829	0.791	0.743	0.722	0.721	0.705	0.684
1 µM, coculture fibroblast: H6019	0.8573	0.7842	0.756	0.703	0.66	0.643	0.599	0.572	0.545
1 µM, coculture fibroblast: H6076	0.858	0.909	0.787	0.742	0.692	0.676	0.661	0.661	0.647
1 µM, coculture fibroblast: H6231	0.888	0.905	0.784	0.719	0.661	0.612	0.578	0.557	0.53
1 µM, coculture fibroblast: HADF	0.73	0.887	0.882	0.867	0.839	0.807	0.781	0.748	0.708
1 µM, coculture fibroblast: HCFa	0.9456	0.8694	0.844	0.804	0.767	0.737	0.712	0.684	0.647
1 µM, coculture fibroblast: HCPF	0.868	0.938	0.853	0.8012	0.749	0.699	0.648	0.644	0.598
1 µM, coculture fibroblast: HHSteC	0.9298	0.838	0.82	0.738	0.687	0.651	0.617	0.597	0.562
1 µM, coculture fibroblast: HMF	0.861	0.897	0.754	0.693	0.638	0.592	0.558	0.523	0.494
1 µM, coculture fibroblast: HPFa	0.932	0.854	0.869	0.7776	0.744	0.699	0.67	0.637	0.567
1 µM, coculture fibroblast: HUF	0.923	0.8152	0.79635	0.731	0.683	0.647	0.637	0.622	0.612
1 µM, coculture fibroblast: Hs5	0.86	0.905	0.804	0.749	0.7075	0.663	0.621	0.588	0.559
1 µM, coculture fibroblast: Hs27A	0.815	0.828	0.908	0.921	0.874	0.848	0.817	0.786	0.735
1 µM, coculture fibroblast: Hs343T	0.728	0.9261	0.768	0.706	0.658	0.604	0.55	0.533	0.493
1 µM, coculture fibroblast: WS1	0.8805	0.851	0.81	0.7663	0.726	0.725	0.721	0.724	0.726

Source: the supplement of paper PMC6078165
